Laboratory results taken from patent US20220153793A1.
These are yes or no findings as the source states them, for the method shown. Some binding calls cover weakened binding; strength is not graded here.

Biological target: GAL4 DNA binding domain-TOPBP1 (residues 2-1523) (human)
Experiment: yeast two-hybrid (GAL4 AD-CIP2A 1-560 with GAL4 BD-TOPBP1)

binding: binds
Substance: GAL4 activation domain-CIP2A (1-560) (from UniProt Q8TCG1 1-560)
